{
  "source": "patent EP4595966A1",
  "about": "“USE OF NPY/Y5R INHIBITOR IN TREATING LIVER METASTASIS” (Friedrich-Alexander-Universität Erlangen-Nürnberg, priority 2024, dated 2025)",
  "key": {"[1]": {"tested_on": "human melanoma cells (SkMel28)", "test": "Boyden chamber chemotactic migration, human melanoma cells", "format": "cell-based", "conditions": "migration towards recombinant NPY, co-treatment with the substance", "description": "• Figure 1 A-B. Boyden chamber analysis and representative images (10-fold original magnification) of chemotaxis of human melanoma cells (SkMel28) towards recombinant NPY (lower chamber) with or without application of Y5R specific inhibitor CGP71683 (Y5Ri) (upper chamber) compared to migration towards serum free medium (n = 9). Arrowheads indicate migrated cells. • Figure 2. Representative images of colony number and colony size of human melanoma cells (SkMel28) in clonogenicity assays with application of increasing concentrations of Y5R inhibitor (Y5Ri) (n = 3). • Figure 3. […] A. CHK2 level in NPY^-/- mice compared to control WT mice measured by IHC analysis. B. CHK2 level in Y5Ri-treated mice compared to control DMSO-treated mice measured by IHC analysis. • Figure 7. […] A. Quantification of NPY mRNA expression levels in liver tissues from mice treated with control LNPs (\"Control\", LNPs bearing control siRNA pool, n = 11) and from mice treated with LNPs bearing siRNA pool targeting murine NPY (\"LNP-siNPY\", n = 11). […] A. Quantification of number of metastases in liver tissues from LNP-siNPY treated mice (n = 10) compared to mice treated with control LNPs (LNPs bearing control siRNA pool, n = 11). B. Quantification of metastases size in liver tissues from LNP-siNPY treated mice (n = 10) compared to mice treated with control LNPs (LNPs bearing control siRNA pool, n = 11). • Figure 13. […]"}, "[2]": {"tested_on": "liver metastatic cancer cells", "test": "Proliferation of liver metastatic cancer cells", "format": "cell-based"}},
  "note": "At least one structure is not confirmed: it was looked up by name or label, or the drawing left a doubt.",
  "data": [
    {"smiles": "C=C[C@@]1(C)CC(=O)[C@]2(O)[C@@]3(C)[C@@H](O)CCC(C)(C)[C@@H]3[C@H](O)[C@H](OC(C)=O)[C@@]2(C)O1", "note": "[forskolin, Forskolin]", "values": [
      {"measurement": "NPY-induced chemotactic migration", "setting": "[1]", "result": "restored"},
      {"measurement": "proliferation", "setting": "[2]", "result": "revealed no effects on proliferation"}
    ]}
  ]
}
